Results: patent publication US10285938B2 (ISSAR Pharmaceutical, priority 2015, dated 2019)
Part of at least one peptide drawing is inferred or uncertain, most often the ends. No end group written: not given here.

Experiments:
burn wound healing = assay type: in vivo, human
Excerpt: None of the XYLENTRA® treated volunteers developed any adverse reaction.

[1] = compared to Silver Sulfadiazine group

FAKKFAKKFAKFAKKFAKFAFAF [XYLENTRA®]
incidence rate of wound healing (time to complete healing, overall wound evaluation score) (burn wound healing; 0.02% & 0.05% groups vs Placebo Group): better | scar formation (burn wound healing; compared to Placebo Group): significantly lower | cumulative wound healing (partial thickness burns; Phase III): 85.42% | area with hypertrophic scar (partial thickness burns; Phase III follow up): 12% | area with paper thin scar (partial thickness burns; Phase III follow up): 2% | breaking of skin, treated patients (partial thickness burns; Phase III follow up): 3% | hyper pigmentation (partial thickness burns; Phase III follow up): 13% | hypo pigmentation (partial thickness burns; Phase III follow up): 16% | itching, treated patients (partial thickness burns; Phase III follow up): 14% | antibiotic usage by patients (partial thickness burns; [1]): lower | time taken for complete wound closure (partial thickness burns; [1]): less | patients with controlled secondary infection (partial thickness burns; during 28 days): 41.7% | necrotic tissue (clinical observation) (partial thickness burns; during the study period): no necrotic tissue was observed | patients with complete wound closure (partial thickness burns; four week time period, N=80 per group): 75 (94%) patients (%) | appearance of healed wound area (clinical observations) (partial thickness burns; most of the treated patients): returned to their normal skin color without any scar or contracture formation | patients observed with no granulation (partial thickness burns; study termination day): 75 (93.75%) patients (%) | patients with no edema (partial thickness burns; study termination day): 79 (98.75%) patients (%) | patients with no erythema (partial thickness burns; study termination day): 78 (97.50%) patients (%) | patients with no non-viable tissue (partial thickness burns; study termination day): 78 (97.50%) patients (%) | patients with no purulence (partial thickness burns; study termination day): 78 (97.50%) patients (%)
